From patent US9517265B2, “Methods for the prevention and/or treatment of memory impairment” (The Governing Council of the University of Toronto, priority 2010, dated 2016)
At least one structure is not confirmed: it was looked up by name or label, or the drawing left a doubt.

The chains behind the UniProt entries cited, without tags or fusion partners. Residues count along the entry.
UniProt P22723, 39-474: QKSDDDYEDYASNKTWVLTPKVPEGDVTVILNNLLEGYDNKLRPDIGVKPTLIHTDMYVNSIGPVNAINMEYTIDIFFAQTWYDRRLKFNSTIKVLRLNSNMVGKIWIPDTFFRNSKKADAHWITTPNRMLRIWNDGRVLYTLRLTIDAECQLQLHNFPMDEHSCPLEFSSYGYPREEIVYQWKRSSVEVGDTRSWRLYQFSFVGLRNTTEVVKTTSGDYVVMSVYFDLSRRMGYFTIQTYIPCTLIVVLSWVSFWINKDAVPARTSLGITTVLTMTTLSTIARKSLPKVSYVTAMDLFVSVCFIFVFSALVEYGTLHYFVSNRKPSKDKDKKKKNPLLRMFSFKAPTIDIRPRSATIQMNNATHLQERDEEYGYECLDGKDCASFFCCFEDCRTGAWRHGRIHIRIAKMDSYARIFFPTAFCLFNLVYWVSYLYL
UniProt Q8BHJ7, 32-463 limits assumed: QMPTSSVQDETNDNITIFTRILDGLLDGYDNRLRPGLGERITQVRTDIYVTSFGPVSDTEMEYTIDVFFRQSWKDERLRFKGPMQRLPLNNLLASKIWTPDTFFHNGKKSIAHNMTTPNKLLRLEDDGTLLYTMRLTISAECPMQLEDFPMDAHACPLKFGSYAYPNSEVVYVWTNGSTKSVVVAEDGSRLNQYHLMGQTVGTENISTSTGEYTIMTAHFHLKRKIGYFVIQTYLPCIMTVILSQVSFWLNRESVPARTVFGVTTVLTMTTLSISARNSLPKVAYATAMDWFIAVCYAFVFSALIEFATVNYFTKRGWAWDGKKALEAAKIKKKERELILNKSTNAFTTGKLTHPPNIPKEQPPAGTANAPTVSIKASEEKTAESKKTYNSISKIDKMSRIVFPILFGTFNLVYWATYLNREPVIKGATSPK

Molecular target: α5GABAARs (Mus musculus, UniProt P22723+Q8BHJ7)
Experiment: Tonic inhibitory current, whole cell voltage-clamp in cultured hippocampal neurons
Type: cell-based, mice
Parameters: endogenous in cells; host or cells: primary embryonic mouse hippocampal neurons, alone or co-cultured with cortical microglia

CN1CCc2cc3c(cc2[C@H]1[C@@H]1OC(=O)c2c1ccc1c2OCO1)OCO3 [Bicuculline, bicuculline]
effect on the tonic current (in words): blocks both the tonic and synaptic conductance
